# Source: the supplement of paper PMC4604168 (melanoma cell lines)
# The list shows a part of the results. Repeats are few or missing, and single values can be far off.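 Cells were imaged in 1,536-well plates, and nuclei stained with an antibody against cleaved PARP were counted against all DNA-stained nuclei to give the apoptosis fraction. Screening doses were chosen to leave most cells alive, and resting and induced cleaved-PARP levels differ strongly between cell lines.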
# Test system: WM1716
# Experiment: cleaved PARP positive nuclei fraction relative to DMSO control; melanoma cells; higher = more apoptosis
# Settings: library dose: low library concentration; 72 h
row,Compound,cleaved PARP positive nuclei fraction
1,"Cc1cn(-c2cc(NC(=O)c3ccc(C)c(Nc4nccc(-c5cccnc5)n4)c3)cc(C(F)(F)F)c2)cn1 [nilotinib] + Cc1ccc(NC(=O)c2cccc(N(C)C)c2)cc1NC(=O)c1ccc(O)cc1 [ZM336372] (first compound 0.2 µM, partner dose 2 µM)",69.4%
2,"CC[C@]1(O)C[C@H]2CN(CCc3c([nH]c4ccccc34)[C@@](C(=O)OC)(c3cc4c(cc3OC)N(C=O)[C@H]3[C@@](O)(C(=O)OC)[C@H](OC(C)=O)[C@]5(CC)C=CCN6CC[C@]43[C@@H]65)C2)C1 [vincristine] + O=C(Nc1cccc(Cl)c1)Nc1ncc(CCNc2ncnc3ccsc23)s1 [SNS314] (first compound 0.0001 µM, partner dose 0.0008 µM)",265%
3,"Cc1ccc(Nc2nccc(N(C)c3ccc4c(C)n(C)nc4c3)n2)cc1S(N)(=O)=O [Pazopanib] + O=C(Nc1cccc(Cl)c1)Nc1ncc(CCNc2ncnc3ccsc23)s1 [SNS314] (first compound 0.4 µM, partner dose 0.0008 µM)",160%
4,"CC[C@]1(O)C[C@H]2CN(CCc3c([nH]c4ccccc34)[C@@](C(=O)OC)(c3cc4c(cc3OC)N(C=O)[C@H]3[C@@](O)(C(=O)OC)[C@H](OC(C)=O)[C@]5(CC)C=CCN6CC[C@]43[C@@H]65)C2)C1 [vincristine] + COc1ccc(-c2ccc3c(N4CCOCC4)nc(N4C[C@@H](C)O[C@@H](C)C4)nc3n2)cc1CO [KU0063794] (first compound 0.0001 µM, partner dose 0.02 µM)",212%
5,"O=c1[nH]nc(Sc2ncc([N+](=O)[O-])s2)n1-c1ccc2c(c1)OCCO2 + COc1cc(Nc2ncc(F)c(Nc3ccc4c(n3)NC(=O)C(C)(C)O4)n2)cc(OC)c1OC [Tamatinib] (first compound 0.2 µM, partner dose 0.4 µM)",161%
6,"O=C(/C=C/c1cccnc1)NCCCCC1CCN(C(=O)c2ccccc2)CC1 + Cc1cc(N2CCOCC2)cc2[nH]c(-c3c(NC[C@@H](O)c4cccc(Cl)c4)cc[nH]c3=O)nc12 [BMS536924] (first compound 0.01 µM, partner dose 0.2 µM)",160%
7,"Cc1cc(Nc2cc(N3CCN(C)CC3)nc(Sc3ccc(NC(=O)C4CC4)cc3)n2)n[nH]1 [Tozasertib] + CC1(C)NC(=O)N(c2ccc([N+](=O)[O-])c(C(F)(F)F)c2)C1=O [nilutamide] (first compound 0.006 µM, partner dose 1 µM)",90.7%
8,"O=C(/C=C/c1cccnc1)NCCCCC1CCN(C(=O)c2ccccc2)CC1 + O=S(=O)(c1ccccc1)N(CC(F)(F)F)c1ccc(C(O)(C(F)(F)F)C(F)(F)F)cc1 [T0901317] (first compound 0.01 µM, partner dose 1.4 µM)",368%
9,"CC[C@]1(O)C[C@H]2CN(CCc3c([nH]c4ccccc34)[C@@](C(=O)OC)(c3cc4c(cc3OC)N(C=O)[C@H]3[C@@](O)(C(=O)OC)[C@H](OC(C)=O)[C@]5(CC)C=CCN6CC[C@]43[C@@H]65)C2)C1 [vincristine] + Cc1cc(N2CCOCC2)cc2[nH]c(-c3c(NC[C@@H](O)c4cccc(Cl)c4)cc[nH]c3=O)nc12 [BMS536924] (first compound 0.0001 µM, partner dose 0.2 µM)",636%
10,"O=c1[nH]nc(Sc2ncc([N+](=O)[O-])s2)n1-c1ccc2c(c1)OCCO2 + O=c1cc(-c2cccc3c2Sc2ccccc2S3)oc(N2CCOCC2)c1 [KU55933] (first compound 0.2 µM, partner dose 1 µM)",24%
11,"COc1cc([C@@H]2c3cc4c(cc3[C@@H](O[C@@H]3O[C@@H]5CO[C@@H](C)O[C@H]5[C@H](O)[C@H]3O)[C@H]3COC(=O)[C@H]23)OCO4)cc(OC)c1O [etoposide] + O=C1NC(=O)/C(=C/c2ccc(-c3ccc(F)cc3O)o2)S1 [AS252424] (first compound 0.02 µM, partner dose 1 µM)",44.5%
12,"Cc1cn(-c2cc(NC(=O)c3ccc(C)c(Nc4nccc(-c5cccnc5)n4)c3)cc(C(F)(F)F)c2)cn1 [nilotinib] + CCCCCCCCCCCC1=C(O)C(=O)C=C(O)C1=O [Embelin] (first compound 0.2 µM, partner dose 1.2 µM)",74.9%
13,"O=c1[nH]nc(Sc2ncc([N+](=O)[O-])s2)n1-c1ccc2c(c1)OCCO2 + CCCCCCCCCCCC1=C(O)C(=O)C=C(O)C1=O [Embelin] (first compound 0.2 µM, partner dose 1.2 µM)",70.3%
14,"O=c1[nH]nc(Sc2ncc([N+](=O)[O-])s2)n1-c1ccc2c(c1)OCCO2 + O=C(Nc1cccc(Cl)c1)Nc1ncc(CCNc2ncnc3ccsc23)s1 [SNS314] (first compound 0.2 µM, partner dose 0.0008 µM)",48.9%
15,"CCCCCCCCCCCCCCCCCCOP(=O)([O-])OC1CC[N+](C)(C)CC1 [Perifosine] + NC(=O)Nc1cc(-c2cccc(F)c2)sc1C(=O)N[C@H]1CCCNC1 [AZD7762] (first compound 0.4 µM, partner dose 0.02 µM)",225%
16,"COc1cc([C@@H]2c3cc4c(cc3[C@@H](O[C@@H]3O[C@@H]5CO[C@@H](C)O[C@H]5[C@H](O)[C@H]3O)[C@H]3COC(=O)[C@H]23)OCO4)cc(OC)c1O [etoposide] + COc1cc(N2CCC(N3CCN(C)CC3)CC2)ccc1Nc1ncc(Cl)c(Nc2ccccc2S(=O)(=O)C(C)C)n1 [NVP-TAE684] (first compound 0.02 µM, partner dose 0.08 µM)",129%
17,"Cc1cc(Nc2cc(N3CCN(C)CC3)nc(Sc3ccc(NC(=O)C4CC4)cc3)n2)n[nH]1 [Tozasertib] + COc1cc(N2CCC(N3CCN(C)CC3)CC2)ccc1Nc1ncc(Cl)c(Nc2ccccc2S(=O)(=O)C(C)C)n1 [NVP-TAE684] (first compound 0.006 µM, partner dose 0.08 µM)",38.3%
18,"CCCCCCCCCCCCCCCCCCOP(=O)([O-])OC1CC[N+](C)(C)CC1 [Perifosine] + O=S(=O)(c1ccccc1)N(CC(F)(F)F)c1ccc(C(O)(C(F)(F)F)C(F)(F)F)cc1 [T0901317] (first compound 0.4 µM, partner dose 1.4 µM)",238%
19,"CC[C@]1(O)C[C@H]2CN(CCc3c([nH]c4ccccc34)[C@@](C(=O)OC)(c3cc4c(cc3OC)N(C=O)[C@H]3[C@@](O)(C(=O)OC)[C@H](OC(C)=O)[C@]5(CC)C=CCN6CC[C@]43[C@@H]65)C2)C1 [vincristine] + Cn1cncc1[C@@](N)(c1ccc(Cl)cc1)c1ccc2c(c1)c(-c1cccc(Cl)c1)cc(=O)n2C [tipifarnib] (first compound 0.0001 µM, partner dose 0.01 µM)",309%
20,"Cc1cn(-c2cc(NC(=O)c3ccc(C)c(Nc4nccc(-c5cccnc5)n4)c3)cc(C(F)(F)F)c2)cn1 [nilotinib] + CN(NC(=O)CC(=O)NN(C)C(=S)c1ccccc1)C(=S)c1ccccc1 [STA4783] (first compound 0.2 µM, partner dose 0.006 µM)",176%
21,"O=C(/C=C/c1cccnc1)NCCCCC1CCN(C(=O)c2ccccc2)CC1 + O=C(Nc1ccccc1)c1cc([N+](=O)[O-])ccc1Cl [GW9662] (first compound 0.01 µM, partner dose 2 µM)",54.2%
22,"CC[C@]1(O)C[C@H]2CN(CCc3c([nH]c4ccccc34)[C@@](C(=O)OC)(c3cc4c(cc3OC)N(C=O)[C@H]3[C@@](O)(C(=O)OC)[C@H](OC(C)=O)[C@]5(CC)C=CCN6CC[C@]43[C@@H]65)C2)C1 [vincristine] + O=c1cc(-c2cccc3c2Sc2ccccc2S3)oc(N2CCOCC2)c1 [KU55933] (first compound 0.0001 µM, partner dose 1 µM)",298%
23,"N#CC[C@H](C1CCCC1)n1cc(-c2ncnc3[nH]ccc23)cn1 [ruxolitinib] + NCC(=O)Nc1ccc(-n2nc(C(F)(F)F)cc2-c2ccc3c(ccc4ccccc43)c2)cc1 [OSU03012] (first compound 1 µM, partner dose 1 µM)",64.2%
24,"O=c1[nH]nc(Sc2ncc([N+](=O)[O-])s2)n1-c1ccc2c(c1)OCCO2 + CC(C)CCN1c2nc(Nc3cc(F)c(O)c(F)c3)ncc2N(C)C(=O)C1C [BID1870] (first compound 0.2 µM, partner dose 0.2 µM)",94.4%
25,"Cc1cn(-c2cc(NC(=O)c3ccc(C)c(Nc4nccc(-c5cccnc5)n4)c3)cc(C(F)(F)F)c2)cn1 [nilotinib] + O=C(Nc1cccc(Cl)c1)Nc1ncc(CCNc2ncnc3ccsc23)s1 [SNS314] (first compound 0.2 µM, partner dose 0.0008 µM)",136%
26,"Cc1ccc(Nc2nccc(N(C)c3ccc4c(C)n(C)nc4c3)n2)cc1S(N)(=O)=O [Pazopanib] + O=S(=O)(c1ccccc1)N(CC(F)(F)F)c1ccc(C(O)(C(F)(F)F)C(F)(F)F)cc1 [T0901317] (first compound 0.4 µM, partner dose 1.4 µM)",293%
27,"CCCCCCCCCCCCCCCCCCOP(=O)([O-])OC1CC[N+](C)(C)CC1 [Perifosine] + CC(C)(C)c1cnc(CSc2cnc(NC(=O)C3CCNCC3)s2)o1 [SNS-032] (first compound 0.4 µM, partner dose 0.01 µM)",192%

# Another view of part of the listing above:
row	Compound	cleaved PARP positive nuclei fraction
5	O=c1[nH]nc(Sc2ncc([N+](=O)[O-])s2)n1-c1ccc2c(c1)OCCO2 + COc1cc(Nc2ncc(F)c(Nc3ccc4c(n3)NC(=O)C(C)(C)O4)n2)cc(OC)c1OC [Tamatinib] (first compound 0.2 µM, partner dose 0.4 µM)	161%
7	Cc1cc(Nc2cc(N3CCN(C)CC3)nc(Sc3ccc(NC(=O)C4CC4)cc3)n2)n[nH]1 [Tozasertib] + CC1(C)NC(=O)N(c2ccc([N+](=O)[O-])c(C(F)(F)F)c2)C1=O [nilutamide] (first compound 0.006 µM, partner dose 1 µM)	90.7%
9	CC[C@]1(O)C[C@H]2CN(CCc3c([nH]c4ccccc34)[C@@](C(=O)OC)(c3cc4c(cc3OC)N(C=O)[C@H]3[C@@](O)(C(=O)OC)[C@H](OC(C)=O)[C@]5(CC)C=CCN6CC[C@]43[C@@H]65)C2)C1 [vincristine] + Cc1cc(N2CCOCC2)cc2[nH]c(-c3c(NC[C@@H](O)c4cccc(Cl)c4)cc[nH]c3=O)nc12 [BMS536924] (first compound 0.0001 µM, partner dose 0.2 µM)	636%
12	Cc1cn(-c2cc(NC(=O)c3ccc(C)c(Nc4nccc(-c5cccnc5)n4)c3)cc(C(F)(F)F)c2)cn1 [nilotinib] + CCCCCCCCCCCC1=C(O)C(=O)C=C(O)C1=O [Embelin] (first compound 0.2 µM, partner dose 1.2 µM)	74.9%
13	O=c1[nH]nc(Sc2ncc([N+](=O)[O-])s2)n1-c1ccc2c(c1)OCCO2 + CCCCCCCCCCCC1=C(O)C(=O)C=C(O)C1=O [Embelin] (first compound 0.2 µM, partner dose 1.2 µM)	70.3%
16	COc1cc([C@@H]2c3cc4c(cc3[C@@H](O[C@@H]3O[C@@H]5CO[C@@H](C)O[C@H]5[C@H](O)[C@H]3O)[C@H]3COC(=O)[C@H]23)OCO4)cc(OC)c1O [etoposide] + COc1cc(N2CCC(N3CCN(C)CC3)CC2)ccc1Nc1ncc(Cl)c(Nc2ccccc2S(=O)(=O)C(C)C)n1 [NVP-TAE684] (first compound 0.02 µM, partner dose 0.08 µM)	129%
20	Cc1cn(-c2cc(NC(=O)c3ccc(C)c(Nc4nccc(-c5cccnc5)n4)c3)cc(C(F)(F)F)c2)cn1 [nilotinib] + CN(NC(=O)CC(=O)NN(C)C(=S)c1ccccc1)C(=S)c1ccccc1 [STA4783] (first compound 0.2 µM, partner dose 0.006 µM)	176%
21	O=C(/C=C/c1cccnc1)NCCCCC1CCN(C(=O)c2ccccc2)CC1 + O=C(Nc1ccccc1)c1cc([N+](=O)[O-])ccc1Cl [GW9662] (first compound 0.01 µM, partner dose 2 µM)	54.2%
